PubChem BioAssay AID1671195 | Yale University, 2021
Aim: 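Genes whose knockdown alters LDL uptake in liver cancer cells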 (primary screen). Cells: human Huh7 hepatoma cells. Reagents: siRNA pool against human genes, 18 nM. Timing: about 2 to 2.5 days of knockdown, then 8 h LDL uptake. Conditions: DiI-labelled LDL at 30 µg/ml for 8 h, in lipoprotein-deficient serum medium. Measured: 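Fluorescent LDL signal imaged in cells, scaled to the plate median, robust z-score for each replicate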. Scale: robust z-score: higher = more LDL uptake after knockdown. Call rule: 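Active when two or more replicates show a robust z-score above 2 or below -2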.
The deposit covers about 22,000 reagents; shown is an unselected part. Over the whole deposit, about 1,510 (6.9%) were called active. 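Active includes knockdowns raising or lowering LDL uptake; positive z-scores mean more uptake, negative mean less.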 Entries without a mark were called inactive. No sequences are given here.

target	robust z-score, replicate 1	robust z-score, replicate 2	robust z-score, replicate 3
FAM222A (family with sequence similarity 222 member A)	-0.446	0.567	-0.277
LOC390254 (retired record)	1.09	0.59	0.729
SPARC (secreted protein acidic and cysteine rich)	-1.51	-0.185	-0.256
CCDC160 (coiled-coil domain containing 160)	2.74 (active)	2.99	2.43
MDK (midkine)	1.8	1.36	1.35
RAB40AL (RAB40A like)	-1.05	-0.899	-0.957
SFXN2 (sideroflexin 2)	-0.775	-0.44	-0.39
BCKDHA (branched chain keto acid dehydrogenase E1 subunit alpha)	1.48	1.11	1.11
FZD5 (frizzled class receptor 5)	-0.702	-1.15	-0.38

Called active, among the entries above:
target	robust z-score, replicate 1	robust z-score, replicate 2	robust z-score, replicate 3
CCDC160 (coiled-coil domain containing 160)	2.74 (active)	2.99	2.43

The listing continues:
target	robust z-score, replicate 1	robust z-score, replicate 2	robust z-score, replicate 3
GLRA3 (glycine receptor alpha 3)	1.05	0.848	0.507
BTC (betacellulin)	-0.756	-0.169	-0.312
FUT3 (fucosyltransferase 3 (Lewis blood group))	0.455	0.131	0.587
MARK2P21 (MARK2 pseudogene 21)	0.341	0.723	0.353
FHL2 (four and a half LIM domains 2)	4.93 (active)	3.93	4.91
RD3 (RD3 regulator of GUCY2D)	1.28	1.13	0.864
GOLGA6L9 (golgin A6 family like 9)	-0.134	-0.419	-0.176
ICAM2 (intercellular adhesion molecule 2)	2.45	1.6	0.633
AS3MT (arsenite methyltransferase)	-0.866	-1.37	-1.17
RPS10P22 (ribosomal protein S10 pseudogene 22)	0.551	-2.43	0.513
EGR4 (early growth response 4)	-0.622	-0.0539	-0.475
CXXC5 (CXXC finger protein 5)	-0.818	-1.68	-0.396
LOC401126 (retired record)	-0.318	-0.0377	0.143
FGF8 (fibroblast growth factor 8)	0.169	-0.771	-0.0277
ARCN1 (archain 1 coat protein complex I subunit delta)	-1.46	-1.29	-1.9
RGS7BP (regulator of G protein signaling 7 binding protein)	-0.863	-0.544	-1.39
LOC441062 (retired record)	0.927	1.83	1.18
BSND (barttin CLCNK type accessory subunit beta)	-0.605	0.008	-0.509
MAST3 (microtubule associated serine/threonine kinase 3)	-1.27	-1.18	-1.12
